Experimental data from US7541374B2, “Malononitrile compounds and use thereof” (Sumitomo Chemical Company, Limited, priority 2004, dated 2009).
Some of these results come from one statement about several compounds together.

Columns and labels:
[1] = test system: Nilaparvata lugens; experiment: Test Example 1: spray on rice plants, Nilaparvata lugens larvae; assay type: in vivo; settings: 500 ppm, sprayed 20 ml/cup on rice plants; thirty first-instar larvae released; sixth day after release
[2] = test system: Aphis gossypii; experiment: Test Example 2: spray on cucumber plant, Aphis gossypii; assay type: in vivo; settings: 500 ppm, sprayed 20 ml/cup on cucumber plant with about twenty Aphis gossypii; sixth day after the treatment

| SMILES | number of parasitic Nilaparvata lugens on the rice plants [1] | number of parasitic insects (Aphis gossypii) [2] |
| --- | --- | --- |
| CC(C)c1ccn(CC(C#N)(C#N)CCC(F)(F)F)n1 [compound of the present invention (2), [(3-i-propyl-1H-pyrazole-1-yl)methyl](3,3,3-trifluoropropyl) malononitrile] | ≤ 3 | ≤ 3 |
| CC(C)(C)c1ccn(CC(C#N)(C#N)CCC(F)(F)F)n1 [compound of the present invention (3), [(3-t-butyl-1H-pyrazole-1-yl)methyl](3,3,3-trifluoropropyl) malononitrile] | ≤ 3 |  |
| C=CCC(C#N)(C#N)Cn1ccc(C(C)(C)C)n1 [compound of the present invention (4), allyl [(3-t-butyl-1H-pyrazole-1-yl)methyl]malononitrile] | ≤ 3 | ≤ 3 |
| CC1(C)CCc2cn(CC(C#N)(C#N)CCC(F)(F)F)nc21 [compound of the present invention (5), [(6,6-dimethyl-5,6-dihydro-cyclopenta[c]pyrazole-2(4H)-yl)methyl](3,3,3-trifluoropropyl) malononitrile] | ≤ 3 |  |
| N#CC(C#N)(CCC(F)(F)F)Cn1ccc(C(F)(F)F)n1 [compound of the present invention (6), {[3-(trifluoromethyl)-1H-pyrazole-1-yl]methyl}(3,3,3-trifluoropropyl) malononitrile] | ≤ 3 | ≤ 3 |
| C=CCC(C#N)(C#N)Cn1ccc(C(F)(F)F)n1 [compound of the present invention (7), allyl {[3-(trifluoromethyl)-1H-pyrazole-1-yl]methyl}malononitrile] | ≤ 3 |  |
| N#CC(C#N)(CCC(F)(F)F)Cn1ccc(C=O)n1 [compound of the present invention (8), [(3-formyl-1H-pyrazole-1-yl)methyl](3,3,3-trifluoropropyl) malononitrile] | ≤ 3 | ≤ 3 |
| N#Cc1ccn(CC(C#N)(C#N)CCC(F)(F)F)n1 [compound of the present invention (9), [(3-cyano-1H-pyrazole-1-yl)methyl](3,3,3-trifluoropropyl) malononitrile] | ≤ 3 | ≤ 3 |
| CC(C)c1nn(CC(C#N)(C#N)CCC(F)(F)F)cc1Br [compound of the present invention (11), [(4-bromo-3-i-propyl-1H-pyrazole-1-yl)methyl] (3,3,3-trifluoropropyl) malononitrile] | ≤ 3 | ≤ 3 |
| CC(C)(C)c1nn(CC(C#N)(C#N)CCC(F)(F)F)cc1Br [compound of the present invention (12), [(4-bromo-3-t-butyl-1H-pyrazole-1-yl)methyl](3,3,3-trifluoropropyl) malononitrile] | ≤ 3 | ≤ 3 |
| CC(C)(C)c1nn(CC(C#N)(C#N)CCC(F)(F)F)cc1Cl [compound of the present invention (13), [(4-chloro-3-t-butyl-1H-pyrazole-1-yl)methyl](3,3,3-trifluoropropyl) malononitrile] | ≤ 3 | ≤ 3 |
| C=CCC(C#N)(C#N)Cn1cc(Br)c(C(C)(C)C)n1 [compound of the present invention (14), allyl [(4-bromo-3-t-butyl-1H-pyrazole-1-yl)methyl]malononitrile] | ≤ 3 |  |
| N#CC(C#N)(CCC(F)(F)F)Cn1cc(Br)c(C(F)(F)F)n1 [compound of the present invention (15), [(4-bromo-3-trifluoromethyl-1H-pyrazole-1-yl)methyl](3,3,3-trifluoropropyl) malononitrile] | ≤ 3 | ≤ 3 |
| C=CCC(C#N)(C#N)Cn1cc(Br)c(C(F)(F)F)n1 [compound of the present invention (16)] | ≤ 3 |  |
| Cc1cnn(CC(C#N)(C#N)CCC(F)(F)F)c1 [compound of the present invention (18)] | ≤ 3 | ≤ 3 |
| C=CCC(C#N)(C#N)Cn1cc(Cl)cn1 [compound of the present invention (20), allyl [(4-chloro-1H-pyrazole-1-yl)methyl]malononitrile] | ≤ 3 |  |

| SMILES | number of parasitic Nilaparvata lugens on the rice plants [1] | number of parasitic insects (Aphis gossypii) [2] |
| --- | --- | --- |
| N#CC(C#N)(CCC(F)(F)F)Cn1cc(Br)cn1 [compound of the present invention (21), [(4-bromo-1H-pyrazole-1-yl)methyl](3,3,3-trifluoropropyl) malononitrile] | ≤ 3 | ≤ 3 |
| N#CC(C#N)(CCC(F)(F)F)Cn1cc(C(F)(F)F)cn1 [compound of the present invention (22), {[4-(trifluoromethyl)-1H-pyrazole-1-yl]methyl}(3,3,3-trifluoropropyl) malononitrile] | ≤ 3 | ≤ 3 |
| C=CCC(C#N)(C#N)Cn1cc(C(=O)OCC)c(C(F)(F)F)n1 [compound of the present invention (26), allyl {[4-ethoxycarbonyl-3-(trifluoromethyl)-pyrazole-1H-yl]methyl}malononitrile] | ≤ 3 |  |
| CC(C)c1ncn(CC(C#N)(C#N)CCC(F)(F)F)n1 [compound of the present invention (28), [(3-i-propyl-1H-1,2,4-triazole-1-yl)methyl](3,3,3-trifluoropropyl) malononitrile] | ≤ 3 | ≤ 3 |
| CC(C)(C)c1ncn(CC(C#N)(C#N)CCC(F)(F)F)n1 [compound of the present invention (29), [(3-t-butyl-1H-1,2,4-triazole-1-yl)methyl](3,3,3-trifluoropropyl) malononitrile] | ≤ 3 | ≤ 3 |
| CCC(C)(C)c1ncn(CC(C#N)(C#N)CCC(F)(F)F)n1 [compound of the present invention (30), {[3-(1,1-dimethylpropyl)-1H-1,2,4-triazole-1-yl]methyl}(3,3,3-trifluoropropyl) malononitrile] | ≤ 3 | ≤ 3 |
| C=CCC(C#N)(C#N)Cn1cnc(C(C)(C)C)n1 [compound of the present invention (31), allyl [(3-t-butyl-1H-1,2,4-triazole-1-yl)methyl]malononitrile] | ≤ 3 | ≤ 3 |
| CC(C)(C)c1nc(Br)n(CC(C#N)(C#N)CCC(F)(F)F)n1 [compound of the present invention (32), [(5-bromo-3-t-butyl-1H-1,2,4-triazole 1-yl)methyl](3,3,3-trifluoropropyl)malononitrile] | ≤ 3 | ≤ 3 |
| N#CC(C#N)(CCC(F)(F)F)Cn1cnc(C(F)(F)F)n1 [compound of the present invention (33), {[3-(trifluoromethyl)-1H-1,2,4-triazole-1-yl]methyl}(3,3,3-trifluoropropyl)malononitrile] | ≤ 3 | ≤ 3 |
| N#CC(C#N)(CCC(F)(F)F)Cn1cnc(C(F)(F)C(F)(F)F)n1 [compound of the present invention (34), {[3-(pentafluoroethyl)-1H-1,2,4-triazole 1-yl]methyl}(3,3,3-trifluoropropyl) malononitrile] | ≤ 3 | ≤ 3 |
| C=CCC(C#N)(C#N)Cn1cnc(C(F)(F)C(F)(F)F)n1 [compound of the present invention (35), allyl {[3-(pentafluoroethyl)-1H-1,2,4-triazole 1-yl]methyl}malononitrile] | ≤ 3 | ≤ 3 |
| N#Cc1cn(CC(C#N)(C#N)CCC(F)(F)F)c2ccccc12 [compound of the present invention (39), [{3-cyano-1H-indole-1-yl}methyl] (3,3,3-trifluoropropyl) malononitrile] | ≤ 3 |  |
| N#CC(C#N)(CCC(F)(F)F)Cn1cc(SC(F)(Cl)Cl)c2ccccc21 [compound of the present invention (44), [(3-{[dichlorofluoromethyl]thio}-1H-indole-1-yl)methyl](3,3,3-trifluoropropyl) malononitrile] |  | ≤ 3 |
| N#Cc1cn(CC(C#N)(C#N)CCC(F)(F)F)cc1C(F)(F)F [compound of the present invention (46), [(3-cyano-4-trifluoromethyl-1H-pyrole-1-yl)methyl](3,3,3-trifluoropropyl) malononitrile] |  | ≤ 3 |
| CCOC(=O)c1cn(CC(C#N)(C#N)CCC(F)(F)F)cc1C(F)(F)F [compound of the present invention (47), [(3-ethoxycarbonyl-4-trifluoromethyl-1H-pyrole-1-yl)methyl](3,3,3-trifluoropropyl)malononitrile] |  | ≤ 3 |
| N#Cc1ccn(CC(C#N)(C#N)CCC(F)(F)F)c1 [compound of the present invention (48), [(3-cyano-1H-pyrole-1-yl)methyl] (3,3,3-trifluoropropyl) malononitrile] | ≤ 3 |  |
